tested on: cockroaches; assay: Dose-response mortality test with probit analysis to estimate LD50 and LD10 for cockroaches; format: in vivo, cockroach; conditions: slope of dose-response mortality

| SMILES | Slope (+/−SE) |
| --- | --- |
| CC(C)O [Isopropyl alcohol] | 5.370 (0.701) |
| CC(C)CO [isobutyl alcohol] | 4.129 (0.452) |
| CCCCCCCCO [Composition 1-octanol, 1-octanol] | 4.375 (0.720) |
| CCCCCCCCCCO [Composition 1-decanol, 1-decanol] | 6.931 (1.023) |
| CC(=O)CC(C)(C)O [Diacetone alcohol] | 4.617 (0.596) |
| CCCCCCCCCCCO [Composition 1-undecanol, 1-undecanol] | 6.956 (1.013) |
| CCO [Ethanol] | 10.037 (1.285) |
| OCCc1ccccc1 [2-phenylethanol] | 3.628 (0.546) |
| CCCCCCCO [Composition 1-heptanol, 1-heptanol] | 5.502 (0.951) |
| CCCCCCO [Composition 1-hexanol, 1-hexanol] | 6.392 (0.869) |
| CCCO [Composition 1-propanol, 1-propanol] | 17.756 (2.034) |
